Reference: PubChem BioAssay AID1259425 (University of Nebraska Medical Center, 2018)
Screen: 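Seek colon cancer weak points whose silencing resembles KSR1 loss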 (primary screen). Cell system: HCT116 human colon cancer cells. Reagents: siRNA pool against human genes, 50 nM siRNA. Detection: 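After 50 nM siRNA pool, branched-DNA assay measures six marker transcripts per well, minus blank, normalised to the geometric mean of two housekeeping transcripts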. Direction: BNIP3L mRNA: higher = more BNIP3L transcript after knockdown.
The deposit covers about 14,000 reagents; this is an unselected part. Not all columns of the deposit are shown. Not given: the time to read-out.

gene	BNIP3L mRNA, set 1
XKR6 (XK related 6)	0.249
TMSB10 (thymosin beta 10)	0.0675
ASXL2 (ASXL transcriptional regulator 2)	0.111
ZNF419 (zinc finger protein 419)	0.106
WDR41 (WD repeat domain 41)	0.0711
CTH (cystathionine gamma-lyase)	0.156
EEF1A2 (eukaryotic translation elongation factor 1 alpha 2)	0.115
MAML3 (mastermind like transcriptional coactivator 3)	0.138
POLE3 (DNA polymerase epsilon 3, accessory subunit)	0.183
FBXL20 (F-box and leucine rich repeat protein 20)	0.0864
SUN1 (Sad1 and UNC84 domain containing 1)	0.107
MTERF3 (mitochondrial transcription termination factor 3)	0.073
ENTPD4 (ectonucleoside triphosphate diphosphohydrolase 4)	0.0752
SEMA4D (semaphorin 4D)	0.105
USP16 (ubiquitin specific peptidase 16)	0.0979
BEST3 (bestrophin 3)	0.139
HOXC4 (homeobox C4)	0.0518
RSL24D1 (ribosomal L24 domain containing 1)	0.157
ENPP3 (ectonucleotide pyrophosphatase/phosphodiesterase 3)	0.0728
PPFIBP1 (PPFIB scaffold protein 1)	0.12

2 of these entries, set out differently:
gene | BNIP3L mRNA, set 1
SUN1 (Sad1 and UNC84 domain containing 1) | 0.107
MTERF3 (mitochondrial transcription termination factor 3) | 0.073
